Assay results taken from PubChem BioAssay AID485298 (National Center for Advancing Translational Sciences (NCATS), 2010).
The whole screen tested about 320,000 compounds, of which about 740 (0.23%) were called active. The shares of active, inactive and inconclusive entries below differ from those in the screen. Calls follow the shape of the dose curve; as a rule, active = well fitted activation curve with a large enough effect; inconclusive = small, poorly fitted or top-dose-only effect; inactive = no such curve, though single readings can be large or run the other way. A potency beside an inconclusive call is a rough fit, not a confirmed value.

test: qHTS Assay for Small Molecule Inhibitors of Mitochondrial Division or Activators of Mitochondrial Fusion; also: nearly all actives have a fitted effect of over 45% in size; conditions: S. cerevisiae fusion-defective mutant growth rescue, CellTiterGlo 48 h; series mostly up to 46.1 µM
Outline: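 S. cerevisiae fusion-defective temperature-sensitive mutants (e.g. fzo1-1, mgm1-5) grown 48 h at 37C in YPEG (ethanol/glycerol non-fermentable) medium with 23 nl compound per well; growth rescue read as CellTiterGlo luminescence.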
Potency is read from the fitted curve at half-maximal effect.

SMILES	Potency
CCCC(=O)NNc1c2ccccc2nc2ccccc12	inactive
Fc1ccc(CSc2nnc(-c3cccs3)o2)cc1	inconclusive: 12.6 µM [activator, partial curve]
COc1cc(NC(=O)/C=C/c2ccccc2[N+](=O)[O-])cc(OC)c1	inconclusive: 10 µM [activator, partial curve]
O=C(Nc1nnc(CCc2ccccc2)s1)c1ccco1	inactive
CC(C)OC(=O)CSc1nc(Cc2ccccc2)nc2ccccc12	inconclusive: 17.8 µM [activator, partial curve]
O=C(O)C/C(=C\c1cc(Cl)c2c(c1)OCO2)c1nc2ccccc2s1	inconclusive: 12.6 µM [activator, partial curve]
Cc1cccc(NC(=O)c2cccnc2)c1C	inactive
COC(=O)c1sccc1NC(=O)c1cc(-c2ccc(C)cc2C)nc2ccccc12	inactive
CC(=O)c1cccc(NS(=O)(=O)c2cc3c(cc2C)N(C(C)=O)CCO3)c1	inactive
Cc1ccc(S(=O)(=O)N2CCN(c3nc(C)nc4sc(C)c(C)c34)CC2)cc1	inactive
Cc1nc(N2CCCCC2)sc1C(=O)c1cccc([N+](=O)[O-])c1	inactive
COc1ccc(Br)c(C(=O)OCC(=O)N2CCC(Cc3ccccc3)CC2)c1	inconclusive: 7.94 µM [activator, partial curve]
CC(=O)N(C)c1ccc(NC(=O)c2ccc([N+](=O)[O-])cc2Cl)cc1	inactive
NC(N)=NC(N)=Nc1ccc2ccccc2c1	active: 31.6 µM
Clc1ccc(-c2nnc3sc(Cc4cccs4)nn23)cc1	inconclusive: 12.6 µM [activator, partial curve]
O=C(C(=O)N1CC=C(c2ccccc2)CC1)c1c[nH]c2ccccc12	inconclusive: 22.4 µM [activator, single point]
CCc1nccn1CCC(=O)N1CCCC(N2CCN(c3ccccc3F)CC2)C1 (centres undefined)	inactive
CC(=O)O[C@]1(C(C)=O)CC[C@H]2[C@@H]3C=C(Cl)C4=CC(=O)CC[C@]4(C)[C@H]3CC[C@@]21C	inconclusive: 35.5 µM [activator, single point]
O=C(CSc1nccc(-c2cccs2)n1)Nc1cccc(Cl)c1Cl	inconclusive: 20 µM [activator, partial curve]
Cc1ccc2nc3sc(C(=O)N4CCCc5ccccc54)c(N)c3cc2c1	inconclusive: 6.31 µM [activator, full curve]
COc1ccc(C2=NOC(C(=O)N3CCN(C(=O)c4ccco4)CC3)C2)cc1OC (centres undefined)	inconclusive: 11.2 µM [activator, partial curve]
Cc1nc(NC(=O)/C=C/c2ccccc2)sc1C(=O)NCCO	inactive
COc1cccc(C(C2C(=O)CC(C)(C)CC2=O)C2C(=O)CC(C)(C)CC2=O)c1	inactive
CNC(=S)N/N=C(\C)c1cccc(C(F)(F)F)c1	inactive
CCCC1COC(Cn2cncn2)(c2ccc(C)cc2)O1 (centres undefined)	inconclusive: 31.6 µM [activator, single point]

Entries shown so far containing an aryl thioether with sulfur outside any ring (3):
SMILES	Potency
Fc1ccc(CSc2nnc(-c3cccs3)o2)cc1	inconclusive: 12.6 µM [activator, partial curve]
CC(C)OC(=O)CSc1nc(Cc2ccccc2)nc2ccccc12	inconclusive: 17.8 µM [activator, partial curve]
O=C(CSc1nccc(-c2cccs2)n1)Nc1cccc(Cl)c1Cl	inconclusive: 20 µM [activator, partial curve]

The list continues.

SMILES	Potency
Nc1c(C(=O)c2ccccc2)oc2ccc([N+](=O)[O-])cc12	inactive
CCOc1ccc2nc(NC(=O)C(NS(=O)(=O)c3cccc4nsnc34)C(C)C)sc2c1 (centres undefined)	inconclusive: 17.8 µM [activator, single point]
Cn1c(Nc2ccccc2)nc2ccccc21	inactive
CCN(CC)C(=O)Nc1ccc(C(=O)OC)cc1	inactive
COc1cccc(C(=O)NC(C)c2ccc(-c3ccccc3)cc2)c1OC (centres undefined)	inconclusive: 35.5 µM [activator, single point]
Cc1cccc(NC(=S)NCc2ccco2)n1	inactive
N#C/C(=N\Nc1cccc(C(F)(F)F)c1)C(=O)c1ccsc1	inconclusive: 3.16 µM [activator, partial curve]
COc1cccc(/C=N/NC(N)=S)c1OCc1cccc(Cl)c1	inconclusive: 25.1 µM [activator, single point]
CO/N=C(\Cn1ncc(NC2CCCCC2)c(Br)c1=O)c1ccc(Cl)cc1	inconclusive: 12.6 µM [activator, partial curve]
O=C(/C=C/c1ccccc1)N1CCN(c2c(Cl)cccc2[N+](=O)[O-])CC1	inconclusive: 35.5 µM [activator, single point]
Cc1c(C)c2ccc(OC(C)C(=O)NC3CCN(Cc4ccccc4)CC3)cc2oc1=O (centres undefined)	inconclusive: 2 µM [activator, full curve]
CN(C(=S)NC(=O)Cc1ccccc1)c1ccccc1	inactive
CCc1ccc(C(=O)C(C)OC(=O)Cc2n[nH]c(=O)c3ccccc23)cc1 (centres undefined)	inactive
COc1cc(C(=O)N2CCN(c3ncnc4sc(C)c(C)c34)CC2)cc(OC)c1OC	inactive
O=C(Nc1nc2ccccc2s1)c1ccc(OCC2CCCO2)cc1 (centres undefined)	inconclusive: 35.5 µM [activator, single point]
O=C1C=C(c2ccc3c(c2)OCCO3)C[C@@H](c2ccc(F)cc2)C1	inconclusive: 8.91 µM [activator, single point]
O=C(NC1CCCC1)c1ccccc1OCc1ccccc1	inconclusive: 22.4 µM [activator, single point]
O=C(C1CCCN(S(=O)(=O)c2ccccc2)C1)N1CCN(c2ccc(F)cc2)CC1 (centres undefined)	active: 3.98 µM
COc1ccc(OC)c(C(C)NC(=S)NC2CCCCC2)c1 (centres undefined)	inactive
COc1ccc2cc3cc(C(=O)N4CCN(c5ccccn5)CC4)oc3nc2c1	inconclusive: 11.2 µM [activator, partial curve]
COc1ccc(CNC(NC(=O)c2ccccc2)(C(F)(F)F)C(F)(F)F)cc1	inconclusive: 6.31 µM [activator, single point]
Fc1ccc(C(c2nnnn2Cc2cccs2)N2CCN(c3ccccc3)CC2)cc1 (centres undefined)	inconclusive: 15.8 µM [activator, single point]
COc1ccc(Cl)cc1NC(=O)CN(C)CC(=O)Nc1ccccc1C(F)(F)F	inconclusive: 22.4 µM [activator, single point]
Cc1ccccc1Nc1nc(NCc2ccco2)c2ccccc2n1	inconclusive: 7.94 µM [activator, single point]
O=C(CSc1ccc(Cl)cc1)NN=C1CCCCCC1	inconclusive: 22.4 µM [activator, single point]

SMILES	Potency
COc1cccc(NC(=O)CN(C)C(=O)c2cc(-c3ccc(F)cc3)nc3ccccc23)c1	inconclusive: 31.6 µM [activator, single point]
CCCC(=O)OCC(=O)c1[nH]c(C)c(C(C)=O)c1C	inconclusive: 14.1 µM [activator, single point]
COc1cc(C(=O)Nc2ccc(Cl)c(C(F)(F)F)c2)cc(OC)c1OC	inconclusive: 35.5 µM [activator, single point]
Cc1ccc(Oc2ncnc(N)c2[N+](=O)[O-])cc1C	inactive
Nc1nc2nc(-c3ccccc3)cc(C(F)(F)F)c2s1	inconclusive: 11.2 µM [activator, partial curve]
COc1ccc(S(=O)(=O)Cc2ccc(C(=O)N3CCN(c4cccc(C)c4C)CC3)o2)cc1	inconclusive: 35.5 µM [activator, single point]
O=C1NC(=O)c2cc(Nc3ccccc3)c(Nc3ccccc3)cc21	inconclusive: 4.61 µM [activator, single point]
O=C(Nc1sc2c(c1C(=O)O)CCCC2)c1cccs1	inconclusive: 7.94 µM [activator, partial curve]
CCOC(=O)N1CCN(C(=O)Nc2ccc3oc(C)nc3c2)CC1	inactive
O=C(Oc1c(Cl)cc(Cl)c2cccnc12)c1cccs1	inactive
O=C(N/N=C/c1ccc(Br)s1)c1c[nH]c2ccccc12	inconclusive: 35.5 µM [activator, partial curve]
COc1ccc(C)cc1NC(=O)CSc1nnc(-c2ccco2)n1N	inactive
Cc1cc(C)n(-c2nnc3n2N=C(c2ccccc2)CS3)n1	inconclusive: 6.31 µM [activator, single point]
CC(=O)c1ccc(OC(=O)CCc2nc3ccccc3s2)cc1	inconclusive: 5.62 µM [activator, single point]
Cc1nc(N2CCN(c3ccccn3)CC2)c2c(C)c(C(=O)N3CCN(c4ccccc4F)CC3)sc2n1	inconclusive: 12.6 µM [activator, single point]
Cc1cc(C)c(C)c(S(=O)(=O)NCC(=O)NCC2CCCCC2)c1C	inactive
O=C(/C=C/c1cccs1)NC(=S)NNC(=O)c1ccccc1O	inactive
Nc1c(C(=O)NCc2ccco2)c2nc3ccccc3nc2n1CCc1ccccc1	inconclusive: 31.6 µM [activator, single point]
O=Cc1c(NCc2ccccc2F)c2ccccc2[nH]c1=O	inactive
CCNC(=O)NC(=O)C(C)Oc1ccc(Br)cc1Br (centres undefined)	inconclusive: 12.6 µM [activator, partial curve]
COc1ccccc1NC(=O)C(Sc1ccccc1)c1ccccc1 (centres undefined)	inconclusive: 35.5 µM [activator, single point]
COc1ccc(Cn2c(-c3ccc(OC)cc3)nc3ccccc32)cc1	inconclusive: 20 µM [activator, single point]
CC1CCc2nc(NC(=O)C3COc4ccccc4O3)sc2C1 (centres undefined)	inconclusive: 22.4 µM [activator, single point]
O=C(Nc1ccc(Oc2cccc3ccccc23)cc1)c1ccco1	inconclusive: 2.82 µM [activator, full curve, poor fit]
